For at least one compound, name, drawing or mass did not settle the structure.
Tests used:
[1] = tested on: spleen and bone marrow tissues; test: Glucocerebrosidase activity in rat spleen and bone marrow after CEREZYME enzyme injection; assay type: in vivo, Fisher rats; details: rat femur bone marrow
Description: To assess the effect of dexamethasone treatment on CEREZYME® enzyme uptake by liver macrophage (Kupffer cells) in vivo, Fisher rats (female, ˜130 g) were divided into four groups (n=3). The first and second groups of rats only received vehicle PBS without dexamethasone, and the third and fourth groups were treated with water-soluble dexamethasone sodium phosphate (American Reagent Laboratories Inc.) at 10 μg and 100 μg (diluted into 200 μl PBS) per rat through intraperitoneal injection. Four doses of dexamethasone were given over two consecutive days, one dose in early morning and one dose in late afternoon on each day. On the third day, CEREZYME® enzyme at 2.5 U per rat (˜18 U/kg) diluted in PBS was administrated into the second, third and fourth groups of rats through tail vein bolus injection. The first group was used as negative control.
Direct measurement of glucocerebrosidase activity in spleen, liver and bone marrow tissues after CEREZYME® enzyme uptake was also assessed in another set of experiments. Five groups of rats were used (n=3). The first four groups were treated in the same manner as described above, whereas the fifth group of rats was not treated with dexamethasone but received 10 U of CEREZYME® enzyme per rat and used as positive controls. […] The supernatants were saved and measured for glucocerebrosidase activity and normalized to protein content as described above.

[2] = tested on: Human liver sinusoidal endothelial cells (LSECS); test: CEREZYME enzyme uptake by liver sinusoidal endothelial cells in vitro; assay type: cell-based; details: dexamethasone pretreatment; result in words
[3] = tested on: Kupffer cells in the liver; test: CEREZYME enzyme uptake by Kupffer cells in rat liver in vivo, immunofluorescence; set-up: species or system Fisher rats; details: 10 or 100 μg dexamethasone i.p., four doses over two days, CEREZYME 2.5 U per rat
[4] = tested on: mannose receptor; details: cited from earlier work
[5] = tested on: spleen macrophages; test: Unmodified glucocerebrosidase uptake in vivo by rat spleen macrophages; details: dexamethasone-treated rats
[6] = tested on: rat alveolar macrophage cell line NR 8383; test: CEREZYME enzyme uptake by rat alveolar macrophage cells in vitro; assay type: cell-based
Description: The rat alveolar macrophage cell line NR 8383 (ATCC# CRL-2192) were cultured in Kaighn's modified F12K nutrient mixture (Gibco# 21127-002) with 2 mM L-glutamine (Gibco# 25030-081), 15% heat-inactivated fetal bovine serum (FBS) (Gibco# 16000-044) and 1× penicillin/streptomycin. Most of the cells were attached to the dish, with some in suspension. Hep3B cells were grown in MEM-eagle (Gibco# 11960-044) with Earles salts and 10% FBS, 1× non-essential amino acid (NEAA), 1× sodium pyruvate and 1× penicillin/streptomycin. Human liver sinusoidal endothelial cells (LSECS) (ACBRI#-566) were purchased from Applied Cell Biology Research Institute through Cell Systems, Inc. Cells were cultured in CS-C Media (CSC# 4Z0-500) with additional 10% FBS. During passage, the culture dishes or flasks were treated with attachment factor solution (CSC# 4Z0-210). Prior to seeding, the purity of the LSECs was confirmed by immunostaining with anti-VOA Willebrand factor (data not shown).
For dexamethasone or other drug treatment, the cells were incubated with the drugs under various conditions as indicated in each figure legend (FIGS. 1A-F). For two-day treatments, a new batch of each drug was added on the second day. On the third day, CEREZYME® enzyme uptake assays were performed. Briefly, macrophage cells were collected from culture flasks by phosphate buffer saline (PBS) wash. After the cells were washed with Kaghan's media without FBS, the cells were resuspended in uptake media (Kaghan's media with 4 mg/ml BSA (Sigma# A-7030) and 25 mM hepes at pH 6.8) at 1×10^6 cells per milliliter. One milliliter of cell aliquot was distributed into 1.5 ml microcentrifuge tubes in duplicate. […]
The lysates were used for glucocerebrosidase assay in duplicate or triplicate with 4-MU-beta-glucoside (Sigma# M-3633) as substrate and with CEREZYME® enzyme as standard. Proteins were quantified using a MicroBCA protein assay kit (Pierce) with BSA as standard. […]

[7] = tested on: lung alveolar macrophages; test: CEREZYME enzyme uptake by lipid-filled lung alveolar macrophages from ASM knockout mice pretreated in vivo; set-up: species or system acid sphingomyelinase (ASM) knockout mice; details: dexamethasone pretreatment 3 consecutive days

## C[C@@H]1C[C@H]2[C@@H]3CCC4=CC(=O)C=C[C@]4(C)[C@@]3(F)[C@@H](O)C[C@]2(C)[C@@]1(O)C(=O)CO [dexamethasone]
[1]
  effect on glucocerebrosidase activity in bone marrow cells: did not reveal any stimulative effects
[2]
  effect on CEREZYME enzyme uptake by liver sinusoidal endothelial cells: did not significantly enhance
[3]
  CEREZYME enzyme uptake by Kupffer cells in the liver: clear trend that dexamethasone pretreatment enhanced
[4]
  enhancement of mannose receptor cell surface expression on macrophages: 3 fold
[5]
  effect on unmodified glucocerebrosidase uptake by spleen macrophages: effect similar to that for the carbohydrate-remodeled CEREZYME® enzyme
[6]; one-day treatment
  stimulative effect on CEREZYME enzyme uptake by macrophages, one-day treatment: minimal effect
[6]; result in words
  effect on CEREZYME enzyme uptake by macrophage cells: did enhance uptake
[6]; time dependence
  treatment time required for stimulative effect on CEREZYME enzyme uptake by macrophages: minimal two-day treatment was required
[7]
  CEREZYME enzyme uptake by lung alveolar macrophages vs non-treated ASM knockout mice: much stronger uptake

— patent publication US7658916B2, “Methods of enhancing lysosomal storage disease therapy by modulation of cell surface receptor density” (Genzyme Corporation, priority 2002, dated 2010)
